Reference: publication PMC8822347, “Sustained Control of Pyruvate Carboxylase by the Essential Second Messenger Cyclic di-AMP in Bacillus subtilis” (mBio, 2022)
Results are given in words; binding and its absence hold for the method and conditions named. In cells and extracts the contact can be indirect. These calls come from enrichment with a bait or labelling near it, and not all partners need be listed.

Biological target: T1, pyruvate carboxylase (PC), endogenous in B. subtilis crude extract (B. subtilis (endogenous in B. subtilis)) (UniProt Q9KWU4)
T1 sequence (chain, biotin as a cofactor): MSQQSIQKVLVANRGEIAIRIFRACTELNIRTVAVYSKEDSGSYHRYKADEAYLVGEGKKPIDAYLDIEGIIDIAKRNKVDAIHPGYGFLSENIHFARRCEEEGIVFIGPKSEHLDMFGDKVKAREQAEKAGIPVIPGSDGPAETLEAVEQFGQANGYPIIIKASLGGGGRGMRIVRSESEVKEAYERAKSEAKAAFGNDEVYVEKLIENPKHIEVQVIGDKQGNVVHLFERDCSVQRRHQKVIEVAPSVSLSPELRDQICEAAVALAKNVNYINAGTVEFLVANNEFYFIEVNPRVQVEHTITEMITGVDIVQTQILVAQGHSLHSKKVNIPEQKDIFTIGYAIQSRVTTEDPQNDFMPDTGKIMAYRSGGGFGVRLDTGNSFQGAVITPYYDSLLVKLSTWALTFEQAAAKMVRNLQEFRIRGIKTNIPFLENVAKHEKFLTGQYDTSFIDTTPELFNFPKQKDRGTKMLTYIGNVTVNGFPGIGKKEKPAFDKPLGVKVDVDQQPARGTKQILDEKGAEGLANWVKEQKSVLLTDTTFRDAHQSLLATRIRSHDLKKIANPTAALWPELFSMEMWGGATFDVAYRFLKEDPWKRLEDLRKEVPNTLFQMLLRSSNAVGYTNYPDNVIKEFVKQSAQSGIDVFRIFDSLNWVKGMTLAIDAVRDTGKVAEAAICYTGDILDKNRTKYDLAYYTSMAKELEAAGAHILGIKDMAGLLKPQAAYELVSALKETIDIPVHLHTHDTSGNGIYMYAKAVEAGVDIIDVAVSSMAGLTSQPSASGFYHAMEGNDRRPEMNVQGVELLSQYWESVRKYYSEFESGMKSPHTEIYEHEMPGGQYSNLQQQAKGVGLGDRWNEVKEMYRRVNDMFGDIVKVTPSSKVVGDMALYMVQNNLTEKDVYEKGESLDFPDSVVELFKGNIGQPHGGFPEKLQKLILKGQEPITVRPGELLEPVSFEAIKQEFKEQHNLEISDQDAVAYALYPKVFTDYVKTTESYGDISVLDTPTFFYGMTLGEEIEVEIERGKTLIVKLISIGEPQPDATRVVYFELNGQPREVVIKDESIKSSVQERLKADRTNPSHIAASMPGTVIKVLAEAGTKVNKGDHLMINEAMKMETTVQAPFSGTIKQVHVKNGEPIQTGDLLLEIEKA
Assay: affinity purification with mass spectrometry; B. subtilis crude extract (MSSM medium, glutamate, 5 mM KCl) passed over a StrepTactin column that holds the naturally biotinylated proteins PC and AccB; eluted with 2.5 mM desthiobiotin; eluates analysed by mass spectrometry

binding: binds
B1: DarB, endogenous in B. subtilis crude extract (protein, UniProt O31698 1-147)
chain: MISLQSDQLLEATVGQFMIEADKVAHVQVGNNLEHALLVLTKTGYTAIPVLDPSYRLHGLIGTNMIMNSIFGLERIEFEKLDQITVEEVMLTDIPRLHINDPIMKGFGMVINNGFVCVENDEQVFEGIFTRRVVLKELNKHIRSLNK
